In patent US20150087584A1:
Results are given in words; binding and its absence hold for the method and conditions named. Some results given as binding are weak or reduced against the parent protein; the word gives no strength.

Chains of the proteins cited; added tags and fusions are not shown. Residues count along the entry.
UniProt P00760, residues 24-246: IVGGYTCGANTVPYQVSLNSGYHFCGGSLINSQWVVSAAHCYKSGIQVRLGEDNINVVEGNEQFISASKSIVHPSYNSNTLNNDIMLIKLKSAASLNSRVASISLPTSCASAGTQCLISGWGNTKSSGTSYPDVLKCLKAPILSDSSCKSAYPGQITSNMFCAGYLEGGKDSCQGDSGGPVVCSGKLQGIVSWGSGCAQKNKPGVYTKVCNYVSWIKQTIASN

Biological target: bovine trypsin (bovine) (UniProt P00760)
Assay: inhibition kinetics of bovine trypsin, BApNA substrate

binding: binds
B1: inhibitory repeat domain IRD-7 of Capsicum annuum Pin-II proteinase inhibitors (CanPIs) (peptide)
chain: EPICTNCCAGLKGCNYYNADGTFICEGESDPNHPKACPKNCDPNIAYS
